Earlier results as cited in US10307371B2 (AI Therapeutics, Inc., priority 2014, dated 2019).

Details: benzyl alcohol, chloroform, acetone, and acetonitrile; cited from earlier work

With `CO[C@H]1C[C@@H]2CC[C@@H](C)[C@@](O)(O2)C(=O)C(=O)N2CCCC[C@H]2C(=O)O[C@H]([C@H](C)C[C@@H]2CC[C@@H](O)[C@H](OC)C2)CC(=O)[C@H](C)/C=C(\C)[C@@H](O)[C@@H](OC)C(=O)[C@H](C)C[C@H](C)/C=C/C=C/C=C/1C` [Rapamycin, (3S,6R,7E,9R,10R,12R,14S,15E,17E,19E,21S,23S,26R,27R,34aS)-9,10,12,13, -14,21,22,23,24,25,26,27,32,33,34,34a-hexadecahydro-9,27-dihydroxy-3-[(1R)-2-[(1S,3R,4R)-4-hydroxy-3-methoxycyclohexyl]-1-methylethyl]-10,21-dimethox-y-6,8,12,14,20,26-hexamethyl-23,27-epoxy-3H-pyrido[2,1-c][1,4]oxaazacyclohentriacontine-1,5,11,28,29(4H,6H,31H)-pentone] as the compound, how does the “Solubility in organic solvents” value read?
Its value is “freely soluble”.
